Binding screen against folded nucleic acids

Source: the ROBIN nucleic acid binder screens (doi:10.1002/anie.202211358).

Targets (5′ to 3′):
T1: PreQ1 riboswitch RNA pseudoknot, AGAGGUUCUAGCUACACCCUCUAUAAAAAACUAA. From B. subtilis. About 24,000 compounds screened, about 170 hits.
T2: SAM-II riboswitch RNA pseudoknot, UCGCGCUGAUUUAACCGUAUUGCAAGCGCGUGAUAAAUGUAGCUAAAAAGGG. About 21,000 compounds screened, about 200 hits.
T3: TPP riboswitch RNA three-way junction, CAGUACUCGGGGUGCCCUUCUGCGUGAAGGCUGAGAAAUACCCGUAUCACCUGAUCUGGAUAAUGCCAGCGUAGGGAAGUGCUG. About 24,000 compounds screened, about 160 hits.

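Compounds were printed on reactive glass slides in duplicate spots, a dye-labelled oligonucleotide was laid over them, and the fluorescence left after washing was read. The data file lists only calls. An earlier report of the laboratory on the PreQ1, TPP and SAM-II riboswitches (doi:10.1038/s41467-019-09493-3) used 1 µM RNA for 2 h and required a mean Z-score above 3 (spot signal-to-noise against the whole library), a score well above that on a control array, and duplicate spots agreeing (coefficient of variation under 100); it then also set aside compounds that hit other targets, which this list keeps. The cut-offs behind this list may differ. The calls come from the array alone, and fixing a compound to the slide can hide its binding.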
Key: active = hit, inactive = tested without a hit.
This is an unselected part of the compounds tested.
A target missing from an entry has no call listed here.

Calls for NCCNC(=O)c1nc(-c2ccc(F)cc2)no1 are T1: inactive; T2: inactive; T3: inactive. Calls for O=C1CCC(=O)N1CNc1cccc(Br)c1 are T1: inactive; T2: inactive; T3: inactive. COc1cc(Cl)c(C)cc1NC(=O)NC[C@@H]1CCCN1 was scored T1: inactive; T2: inactive; T3: inactive. For CC(=O)Nc1cccc(-c2nccc(N3CCCC(O)C3)n2)c1 (configuration not stated) the calls were T1: inactive; T2: inactive; T3: inactive. O=c1c2c3c(sc2ncn1CCCn1nnc2ccccc21)CNCC3 was scored T1: inactive; T2: inactive; T3: inactive.

For Nc1nc2n(c1C(=O)c1ccc(Cl)cc1)CCC2 the calls were T1: inactive; T2: inactive; T3: inactive. Calls for CC(C)=N/N=c1\nc[nH]c2nc[nH]c12 are T1: inactive; T2: inactive; T3: inactive. Calls for C=CC(=O)Nc1cccc(Sc2nc(Nc3ccc(N4CCN(C)CC4)cc3)ncc2Cl)c1 are T1: inactive; T2: active; T3: inactive. For CCc1nc(N)nc(N2CCN(Cc3ccncc3)CC2)c1C the calls were T1: inactive; T2: inactive; T3: inactive. For CCOc1ccc(CN2CCN(c3ccc(Cl)cn3)CC2)cc1CO the calls were T1: inactive; T2: inactive; T3: inactive.

For Cc1ccc(CN(CCO)C(=O)CCc2c(C)n[nH]c2C)s1 the calls were T1: inactive; T2: inactive; T3: inactive. Calls for O=C(NCCc1csc(-c2ccncc2)n1)C1CNCCO1 (configuration not stated) are T1: inactive; T2: inactive; T3: inactive. With N#CC1(c2ccc(-c3cccc4c3CCNC4)cc2)CCCC1 the screen gave T1: active; T2: active; T3: active. Cc1ccc(CNC(=O)Cn2nnc(C(=O)Nc3ccc(Br)cc3)c2N)cc1 was scored T1: inactive; T2: inactive; T3: inactive. Calls for COc1ccc(Cn2nnc(C(=O)Nc3ccc(C)cc3C)c2N)cc1Br are T1: inactive; T2: inactive; T3: inactive.

CC(C)c1noc(N2CCC(COc3ccc(-c4ccc(S(C)(=O)=O)cc4)nc3)CC2)n1 was scored T1: inactive; T2: inactive; T3: inactive. Calls for Cc1c(C(=O)N2CCN(C(c3ccccc3)c3ccccc3)CC2)sc(N)c1C#N are T1: inactive; T2: inactive; T3: inactive. For CNc1ncnc2c1c(-c1ccccc1)cn2-c1cccc(Cl)c1 the calls were T1: inactive; T3: inactive. With CNC1CCC(N(Cc2cccc(-c3ccncc3)c2)C(=O)c2sc3c(F)ccc(F)c3c2Cl)CC1 (configuration not stated) the screen gave T1: inactive; T2: inactive; T3: inactive. For CO[C@@]12[C@H](COC(N)=O)C3=C(C(=O)C(C)=C(N)C3=O)N1C[C@@H]1N[C@@H]12 the calls were T1: inactive; T2: inactive; T3: inactive.

With Cc1onc(-c2c(Cl)cccc2Cl)c1CN1CCOCC(CO)C1 (configuration not stated) the screen gave T1: inactive; T2: inactive; T3: inactive.

Once more, the final 2:

Compound	T1	T2	T3
CO[C@@]12[C@H](COC(N)=O)C3=C(C(=O)C(C)=C(N)C3=O)N1C[C@@H]1N[C@@H]12	inactive	inactive	inactive
Cc1onc(-c2c(Cl)cccc2Cl)c1CN1CCOCC(CO)C1 (configuration not stated)	inactive	inactive	inactive